The other results are listed elsewhere or left out.
Assays:
Assay in all cases: log2 fold change, soluble protein after heating vs DMSO (PISA); higher = thermal stabilisation; K562 lysate, 10 uM; active = over 0.2 and 3.5 SD of the protein, either way, in both replicates (recomputed)
[1] = compound: NCC(=O)Nc1ccc(-n2nc(C(F)(F)F)cc2-c2ccc3c(ccc4ccccc43)c2)cc1
Outline: (§1)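 Quantification was by TMTpro 16plex LC-MS/MS with equalised channel sums, applied to the supernatant after 21,000xg for 90 min. Samples were crude K562 extract at 1 mg/mL protein in PBS pH 7.4 with 1 mM MgCl2, treated with 10 μM compound for 30 min, heated for 3 min across 48°C-58°C, pooled and brought to 0.5% NP-40 at 4°C. Values are log-two fold changes in thermal stability relative to solvent controls, from duplicates.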

Sequences of proteins named here, by UniProt entry; tags and fusion partners are left off. A change or cut given only in a name is not applied to a line headed by its entry.
UniProt Q96JM3: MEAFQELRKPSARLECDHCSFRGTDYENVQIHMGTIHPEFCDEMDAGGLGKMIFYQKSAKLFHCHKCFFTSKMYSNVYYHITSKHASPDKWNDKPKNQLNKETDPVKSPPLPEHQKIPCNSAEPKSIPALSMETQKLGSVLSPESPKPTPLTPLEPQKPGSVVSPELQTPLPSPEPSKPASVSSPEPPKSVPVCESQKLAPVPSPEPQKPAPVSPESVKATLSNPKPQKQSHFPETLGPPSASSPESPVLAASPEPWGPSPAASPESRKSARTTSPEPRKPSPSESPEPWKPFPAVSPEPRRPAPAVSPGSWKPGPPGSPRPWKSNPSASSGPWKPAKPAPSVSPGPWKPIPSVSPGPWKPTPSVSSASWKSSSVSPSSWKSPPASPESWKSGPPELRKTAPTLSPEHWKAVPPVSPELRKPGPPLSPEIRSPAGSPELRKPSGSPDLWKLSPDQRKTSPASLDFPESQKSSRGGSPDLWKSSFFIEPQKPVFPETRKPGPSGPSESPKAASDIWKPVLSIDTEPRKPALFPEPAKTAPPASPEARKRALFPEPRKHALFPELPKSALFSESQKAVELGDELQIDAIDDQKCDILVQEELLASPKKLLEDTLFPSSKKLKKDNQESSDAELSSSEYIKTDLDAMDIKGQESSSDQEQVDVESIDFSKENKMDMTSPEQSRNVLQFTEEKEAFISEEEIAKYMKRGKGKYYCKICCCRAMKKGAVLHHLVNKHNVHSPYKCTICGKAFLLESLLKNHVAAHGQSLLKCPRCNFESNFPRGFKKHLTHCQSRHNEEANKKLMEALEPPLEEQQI
UniProt Q96FZ7: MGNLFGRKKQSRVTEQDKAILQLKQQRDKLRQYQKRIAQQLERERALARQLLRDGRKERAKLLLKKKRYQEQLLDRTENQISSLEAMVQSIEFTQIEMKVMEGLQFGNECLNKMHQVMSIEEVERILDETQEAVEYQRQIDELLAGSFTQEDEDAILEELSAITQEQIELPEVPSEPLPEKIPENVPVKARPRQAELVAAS
UniProt Q8N5K1: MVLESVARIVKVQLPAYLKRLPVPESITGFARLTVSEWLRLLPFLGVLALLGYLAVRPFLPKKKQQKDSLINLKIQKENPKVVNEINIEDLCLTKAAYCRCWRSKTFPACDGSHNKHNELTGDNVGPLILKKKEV
UniProt Q9UHD1: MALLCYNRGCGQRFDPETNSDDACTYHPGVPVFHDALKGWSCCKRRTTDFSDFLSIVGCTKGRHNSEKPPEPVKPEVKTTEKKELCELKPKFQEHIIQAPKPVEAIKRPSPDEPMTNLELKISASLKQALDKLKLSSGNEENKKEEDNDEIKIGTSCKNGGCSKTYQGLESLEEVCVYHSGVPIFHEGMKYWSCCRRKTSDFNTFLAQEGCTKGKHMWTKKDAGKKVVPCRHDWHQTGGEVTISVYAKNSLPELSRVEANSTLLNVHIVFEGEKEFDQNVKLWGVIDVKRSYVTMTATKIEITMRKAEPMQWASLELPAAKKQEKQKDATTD
UniProt Q8WWK9: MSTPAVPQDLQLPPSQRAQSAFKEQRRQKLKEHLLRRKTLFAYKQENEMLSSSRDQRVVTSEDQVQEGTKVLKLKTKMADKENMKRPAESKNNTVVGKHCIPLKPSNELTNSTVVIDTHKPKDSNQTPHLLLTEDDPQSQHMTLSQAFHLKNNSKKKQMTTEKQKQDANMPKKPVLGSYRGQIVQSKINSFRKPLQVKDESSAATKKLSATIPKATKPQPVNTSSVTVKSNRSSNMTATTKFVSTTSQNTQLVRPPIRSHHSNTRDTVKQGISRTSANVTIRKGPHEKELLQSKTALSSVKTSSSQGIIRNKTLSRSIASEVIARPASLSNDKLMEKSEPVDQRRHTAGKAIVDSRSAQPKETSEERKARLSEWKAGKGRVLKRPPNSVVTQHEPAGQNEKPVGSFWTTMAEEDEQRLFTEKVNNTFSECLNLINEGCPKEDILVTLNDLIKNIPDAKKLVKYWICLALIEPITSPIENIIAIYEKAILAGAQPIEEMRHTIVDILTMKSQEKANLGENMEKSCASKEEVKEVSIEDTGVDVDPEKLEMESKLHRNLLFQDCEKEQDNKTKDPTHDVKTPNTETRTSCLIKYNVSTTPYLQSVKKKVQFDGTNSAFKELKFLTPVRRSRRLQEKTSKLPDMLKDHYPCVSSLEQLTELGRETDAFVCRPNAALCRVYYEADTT
UniProt Q15846: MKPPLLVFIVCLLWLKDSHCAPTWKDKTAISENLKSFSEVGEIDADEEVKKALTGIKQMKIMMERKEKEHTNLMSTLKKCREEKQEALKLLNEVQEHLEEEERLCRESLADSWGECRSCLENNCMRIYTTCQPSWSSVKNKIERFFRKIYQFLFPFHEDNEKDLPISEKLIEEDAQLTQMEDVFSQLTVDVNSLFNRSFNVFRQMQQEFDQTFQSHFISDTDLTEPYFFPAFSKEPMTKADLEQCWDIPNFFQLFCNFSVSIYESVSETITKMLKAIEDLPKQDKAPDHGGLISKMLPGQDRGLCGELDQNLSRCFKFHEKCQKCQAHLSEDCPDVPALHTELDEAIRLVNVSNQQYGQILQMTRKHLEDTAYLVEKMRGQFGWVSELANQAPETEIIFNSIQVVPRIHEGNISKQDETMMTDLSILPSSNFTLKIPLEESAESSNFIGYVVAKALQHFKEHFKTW
UniProt Q99653: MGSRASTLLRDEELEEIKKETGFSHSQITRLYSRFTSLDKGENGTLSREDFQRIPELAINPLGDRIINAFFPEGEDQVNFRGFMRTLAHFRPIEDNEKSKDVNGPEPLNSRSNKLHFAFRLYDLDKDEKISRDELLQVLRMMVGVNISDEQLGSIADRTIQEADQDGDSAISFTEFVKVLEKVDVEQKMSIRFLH
UniProt Q9Y696: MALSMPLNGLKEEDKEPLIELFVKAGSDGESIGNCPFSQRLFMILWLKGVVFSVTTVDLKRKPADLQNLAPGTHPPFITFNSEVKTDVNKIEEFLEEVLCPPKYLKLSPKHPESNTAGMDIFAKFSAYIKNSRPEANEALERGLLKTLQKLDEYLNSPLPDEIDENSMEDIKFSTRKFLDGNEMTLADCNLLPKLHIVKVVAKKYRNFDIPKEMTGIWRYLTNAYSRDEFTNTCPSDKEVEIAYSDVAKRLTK
UniProt P24386: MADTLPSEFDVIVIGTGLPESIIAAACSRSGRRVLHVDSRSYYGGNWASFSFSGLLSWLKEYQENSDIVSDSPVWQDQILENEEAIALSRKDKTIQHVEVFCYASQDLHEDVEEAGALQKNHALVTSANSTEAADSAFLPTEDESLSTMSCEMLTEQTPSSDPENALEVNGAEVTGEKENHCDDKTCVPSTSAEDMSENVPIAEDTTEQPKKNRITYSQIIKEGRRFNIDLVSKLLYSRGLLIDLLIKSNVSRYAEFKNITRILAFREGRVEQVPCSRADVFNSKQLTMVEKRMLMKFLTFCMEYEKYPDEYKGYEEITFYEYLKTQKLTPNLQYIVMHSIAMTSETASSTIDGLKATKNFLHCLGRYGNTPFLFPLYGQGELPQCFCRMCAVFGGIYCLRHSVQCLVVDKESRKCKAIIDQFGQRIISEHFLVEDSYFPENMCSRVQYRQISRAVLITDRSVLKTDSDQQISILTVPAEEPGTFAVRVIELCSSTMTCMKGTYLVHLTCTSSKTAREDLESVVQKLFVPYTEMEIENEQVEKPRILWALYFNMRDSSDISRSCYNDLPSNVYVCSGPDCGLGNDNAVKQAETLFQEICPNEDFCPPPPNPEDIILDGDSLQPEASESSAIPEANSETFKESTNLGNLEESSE
UniProt O14757: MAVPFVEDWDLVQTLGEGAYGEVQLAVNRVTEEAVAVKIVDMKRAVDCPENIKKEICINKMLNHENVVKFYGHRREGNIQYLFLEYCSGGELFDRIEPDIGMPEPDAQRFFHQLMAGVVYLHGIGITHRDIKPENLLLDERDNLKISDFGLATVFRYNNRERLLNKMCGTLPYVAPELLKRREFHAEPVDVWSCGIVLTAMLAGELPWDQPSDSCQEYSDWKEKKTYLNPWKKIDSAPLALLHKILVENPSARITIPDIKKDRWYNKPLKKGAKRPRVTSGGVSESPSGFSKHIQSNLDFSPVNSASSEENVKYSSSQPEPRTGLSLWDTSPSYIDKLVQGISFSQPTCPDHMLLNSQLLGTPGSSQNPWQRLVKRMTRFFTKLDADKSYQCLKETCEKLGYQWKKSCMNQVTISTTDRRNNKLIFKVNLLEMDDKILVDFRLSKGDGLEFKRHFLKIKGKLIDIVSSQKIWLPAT
UniProt Q12873: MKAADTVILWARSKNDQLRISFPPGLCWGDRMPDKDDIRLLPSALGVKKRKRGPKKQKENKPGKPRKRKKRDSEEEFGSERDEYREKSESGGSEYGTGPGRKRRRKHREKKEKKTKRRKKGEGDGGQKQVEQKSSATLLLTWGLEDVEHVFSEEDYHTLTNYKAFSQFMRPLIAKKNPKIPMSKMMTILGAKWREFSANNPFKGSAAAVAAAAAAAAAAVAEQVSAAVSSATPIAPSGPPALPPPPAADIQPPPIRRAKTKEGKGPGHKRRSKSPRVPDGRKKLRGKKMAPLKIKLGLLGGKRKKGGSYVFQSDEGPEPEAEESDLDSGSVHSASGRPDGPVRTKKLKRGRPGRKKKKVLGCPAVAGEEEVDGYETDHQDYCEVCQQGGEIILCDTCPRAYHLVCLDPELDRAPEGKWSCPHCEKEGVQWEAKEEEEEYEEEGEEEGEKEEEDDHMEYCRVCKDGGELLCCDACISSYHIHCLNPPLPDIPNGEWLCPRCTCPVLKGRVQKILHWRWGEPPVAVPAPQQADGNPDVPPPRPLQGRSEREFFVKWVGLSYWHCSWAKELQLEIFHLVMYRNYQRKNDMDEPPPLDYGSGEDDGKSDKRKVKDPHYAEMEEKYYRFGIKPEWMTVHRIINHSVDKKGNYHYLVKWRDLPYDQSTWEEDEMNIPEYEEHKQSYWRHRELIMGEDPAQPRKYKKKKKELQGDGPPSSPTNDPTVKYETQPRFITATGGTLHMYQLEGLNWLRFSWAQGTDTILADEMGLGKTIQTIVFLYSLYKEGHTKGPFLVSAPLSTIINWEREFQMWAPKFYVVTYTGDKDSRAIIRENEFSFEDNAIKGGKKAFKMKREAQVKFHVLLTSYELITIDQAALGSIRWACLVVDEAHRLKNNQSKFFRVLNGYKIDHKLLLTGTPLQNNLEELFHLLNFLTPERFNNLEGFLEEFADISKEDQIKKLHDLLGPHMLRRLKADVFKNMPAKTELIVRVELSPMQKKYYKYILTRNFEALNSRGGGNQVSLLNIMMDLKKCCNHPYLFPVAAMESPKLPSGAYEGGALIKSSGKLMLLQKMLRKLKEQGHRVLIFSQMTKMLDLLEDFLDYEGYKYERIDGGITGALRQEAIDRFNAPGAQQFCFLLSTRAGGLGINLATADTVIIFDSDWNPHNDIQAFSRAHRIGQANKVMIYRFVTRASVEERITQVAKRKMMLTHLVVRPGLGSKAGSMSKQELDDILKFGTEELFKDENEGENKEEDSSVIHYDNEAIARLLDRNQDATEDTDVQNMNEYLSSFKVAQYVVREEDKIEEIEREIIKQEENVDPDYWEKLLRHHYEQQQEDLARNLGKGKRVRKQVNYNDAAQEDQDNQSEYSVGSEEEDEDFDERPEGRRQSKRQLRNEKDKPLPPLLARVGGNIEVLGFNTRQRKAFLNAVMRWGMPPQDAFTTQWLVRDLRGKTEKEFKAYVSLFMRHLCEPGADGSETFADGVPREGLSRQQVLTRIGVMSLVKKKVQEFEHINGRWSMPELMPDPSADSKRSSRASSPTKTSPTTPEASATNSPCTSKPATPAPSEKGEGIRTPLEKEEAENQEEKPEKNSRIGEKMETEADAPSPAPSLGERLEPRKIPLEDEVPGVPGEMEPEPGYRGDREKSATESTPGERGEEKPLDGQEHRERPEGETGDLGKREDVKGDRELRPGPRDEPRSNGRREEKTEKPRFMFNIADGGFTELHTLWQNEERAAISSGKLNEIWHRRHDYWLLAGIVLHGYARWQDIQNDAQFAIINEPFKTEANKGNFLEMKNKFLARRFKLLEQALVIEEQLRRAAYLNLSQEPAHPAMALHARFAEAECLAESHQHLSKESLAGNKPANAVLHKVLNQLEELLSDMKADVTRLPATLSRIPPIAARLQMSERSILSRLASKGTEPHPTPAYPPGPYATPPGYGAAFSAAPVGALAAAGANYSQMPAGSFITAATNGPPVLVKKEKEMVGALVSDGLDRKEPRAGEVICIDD
UniProt Q9NRG0: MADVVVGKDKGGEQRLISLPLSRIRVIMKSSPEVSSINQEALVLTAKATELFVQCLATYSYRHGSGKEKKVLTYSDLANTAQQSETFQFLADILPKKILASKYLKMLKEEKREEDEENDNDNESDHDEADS
UniProt P30085: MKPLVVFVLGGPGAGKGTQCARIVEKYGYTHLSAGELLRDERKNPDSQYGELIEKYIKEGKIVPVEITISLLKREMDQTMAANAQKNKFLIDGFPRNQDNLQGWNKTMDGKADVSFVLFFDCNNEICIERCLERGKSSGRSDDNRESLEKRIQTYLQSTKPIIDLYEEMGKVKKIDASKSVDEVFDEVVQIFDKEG

vorinostat = compound: O=C(CCCCCCC(=O)Nc1ccccc1)NO [vorinostat]
Outline: as §1

silmitasertib = compound: O=C(O)c1ccc2c(c1)nc(Nc1cccc(Cl)c1)c1ccncc12 [silmitasertib]
Outline: as §1

[2] = compound: O=C1NC(=O)C(c2cnc3ccccn23)=C1c1cn2c3c(cc(F)cc13)CN(C(=O)N1CCCCC1)CC2
Outline: as §1

entospletinib = compound: c1cn2cc(-c3ccc4cn[nH]c4c3)nc(Nc3ccc(N4CCOCC4)cc3)c2n1 [entospletinib]
Outline: as §1

| Target | log2 fold change [1] | log2 fold change (vorinostat) | log2 fold change (silmitasertib) | log2 fold change [2] | log2 fold change (entospletinib) |
| --- | --- | --- | --- | --- | --- |
| CHAMP1 (UniProt Q96JM3) | inactive: -0.051 | inactive: 0.017 | inactive: -0.024 | inactive: -0.001 | inactive: -0.002 |
| CLUH (UniProt O75153) | inactive: -0.011 | active: 0.404 | inactive: 0.071 | inactive: 0.033 | inactive: 0.01 |
| CKMT2 (UniProt P17540) | inactive: 0.044 | inactive: -0.038 | inactive: -0.023 | inactive: 0.115 | inactive: 0.013 |
| CHMP3 (UniProt Q9Y3E7) | inactive: 0.016 | inactive: 0.109 | inactive: -0.037 | inactive: 0.02 | inactive: 0.019 |
| CHMP6 (UniProt Q96FZ7) | inactive: -0.066 | inactive: 0.105 | inactive: -0.001 | inactive: 0.061 | inactive: -0.018 |
| CHCHD2 (UniProt Q9Y6H1) | inactive: -0.022 | active: -0.301 | inactive: 0.044 | inactive: -0.017 | inactive: -0.06 |
| CKM (UniProt P06732) | inactive: 0.003 | inactive: -0.053 | inactive: -0.025 | inactive: -0.014 | inactive: -0.026 |
| CISD2 (UniProt Q8N5K1) | inactive: 0.015 | inactive: 0.111 | inactive: 0.007 | inactive: -0.013 | inactive: -0.011 |
| CLPTM1L (UniProt Q96KA5) | inactive: -0.045 | inactive: 0.136 | inactive: 0.012 | inactive: 0.012 | inactive: -0.039 |
| CMTM4 (UniProt Q8IZR5) | inactive: 0.187 | inactive: 0.167 | inactive: 0.091 | inactive: -0.028 | – |
| CHORDC1 (UniProt Q9UHD1) | inactive: 0.001 | inactive: -0.014 | inactive: -0.019 | inactive: -0.009 | inactive: 0 |
| CKAP2 (UniProt Q8WWK9) | active: 0.434 | inactive: 0.011 | inactive: -0.013 | inactive: -0.044 | inactive: 0.033 |
| CLUL1 (UniProt Q15846) | inactive: -0.132 | – | – | – | – |
| CHP1 (UniProt Q99653) | inactive: 0.031 | inactive: 0.076 | inactive: -0.013 | inactive: 0.013 | inactive: 0.01 |
| CLK3 (UniProt P49761) | inactive: 0.055 | inactive: -0.221 | inactive: 0.163 | inactive: -0.19 | inactive: -0.002 |
| CHST10 (UniProt O43529) | inactive: -0.041 | inactive: 0.103 | inactive: -0.052 | – | – |
| CLASP1 isoform 4 (UniProt Q7Z460) | inactive: -0.214 | inactive: 0.167 | inactive: 0.06 | – | – |
| CLIC4 (UniProt Q9Y696) | inactive: 0.024 | inactive: -0.009 | inactive: -0.002 | inactive: 0.032 | inactive: 0.002 |
| CISH isoform 3 (UniProt Q9NSE2) | inactive: -0.035 | – | – | – | – |
| CHM (UniProt P24386) | inactive: 0.127 | inactive: -0.007 | inactive: 0.059 | inactive: 0 | inactive: -0.003 |
| CLIC2 (UniProt O15247) | inactive: 0.022 | active: -0.369 | inactive: -0.018 | inactive: 0.029 | inactive: 0.005 |
| CMPK2 (UniProt Q5EBM0) | inactive: -0.002 | active: -0.323 | inactive: 0.005 | inactive: 0.064 | inactive: 0 |
| CHD9 (UniProt Q3L8U1) | inactive: -0.018 | inactive: -0.111 | inactive: 0.075 | inactive: -0.012 | – |
| CHEK1 (UniProt O14757) | inactive: 0.008 | inactive: 0.086 | inactive: 0.168 | inactive: -0.014 | inactive: 0.009 |
| CHD3 isoform 3 (UniProt Q12873) | inactive: 0.022 | active: -0.316 | inactive: 0.032 | inactive: -0.004 | inactive: 0.002 |
| CHRAC1 (UniProt Q9NRG0) | inactive: 0.017 | inactive: -0.06 | inactive: -0.144 | inactive: -0.014 | inactive: 0.012 |
| CMPK1 (UniProt P30085) | inactive: -0.04 | inactive: 0.008 | inactive: -0.071 | inactive: 0.005 | inactive: 0.022 |

Record cards, from the list above. Order of values: log2 fold change [1]	log2 fold change (vorinostat)	log2 fold change (silmitasertib)	log2 fold change [2]	log2 fold change (entospletinib)
CHRAC1 (UniProt Q9NRG0) as listed: inactive: 0.017	inactive: -0.06	inactive: -0.144	inactive: -0.014	inactive: 0.012
CLK3 (UniProt P49761) as listed: inactive: 0.055	inactive: -0.221	inactive: 0.163	inactive: -0.19	inactive: -0.002

Reference: the supplement of paper PMC10849652
